Out of some 340,000 compounds screened, about 4,500 (1.3%) were called active. Inconclusive means that the source gave no clear call. Such entries were picked first, then a sample of the others. Calls follow the shape of the dose curve; as a rule, active = well fitted inhibition curve with a large enough effect; inconclusive = small, poorly fitted or top-dose-only effect, or another doubt; inactive = no such curve, though single readings can be large or run the other way. Potencies beside an inconclusive call are fits to weak or partial responses and may not hold up. A structure can be active in one record and inactive in another.
Each molecule was assayed against DNA polymerase beta (Homo sapiens) (UniProt P06746) (assay: qHTS Assay for Inhibitors of DNA Polymerase Beta). Details: Pol beta primer extension/strand displacement, fluorescence kinetic; activity change, negative = inhibition: at 114 µM (top of the series).
Procedure, shortened: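 Kinetic readout of DNA synthesis with strand displacement by Pol beta. Compound and 10 nM enzyme sit 15 min at room temperature; 50 nM substrate starts the reaction, read immediately and at 10 min.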
% is scaled to controls: 0 for no effect and ±100 for the full control effect; potency is read from the fitted curve at half-maximal effect.

| Structure (SMILES) | Potency | activity change, negative = inhibition |
| --- | --- | --- |
| COCCNc1cc(C)nc2cc(-c3ccc(C)cc3)nn12 | inconclusive: 2.24 µM [inhibitor, full curve] | – |
| CCOc1cccc(-c2nnc3sc(COc4ccc(OC)cc4)nn23)c1 | inconclusive: 2.24 µM [inhibitor, partial curve] | – |
| CC(=O)Nc1ccc(NC(=O)c2cc(=O)c3ccc(C)cc3o2)cc1 | inconclusive: 10 µM [inhibitor, partial curve, poor fit] | – |
| O=C(COC(=O)c1c2c(nc3ccccc13)/C(=C/c1ccco1)CC2)NC1CCCC1 | active: 3.16 µM | – |
| COC(=O)CC1=NN(c2ccccc2)C(=O)/C1=C\c1ccc(OC)cc1 | – | inactive: 88.9% |
| CC(=O)Nc1nc(=S)ss1 | – | inactive: 18.6% |
| CCOC(=O)c1[nH]c(C)c(CCC(=O)Nc2cccc(SC)c2)c1C | – | inactive: 13.2% |
| COC(=O)c1ccc2c(c1)C(C)(C)C(/C=C/c1ccc(O)cc1)=[N+]2C | inconclusive: 50.1 µM [inhibitor, partial curve, poor fit] | – |
| Cc1cccn2c(=O)c(/C=N/O)c(Nc3ccccc3F)nc12 | – | inconclusive: -73.7% [inhibitor] |
| Cc1onc(-c2c(F)cccc2Cl)c1C(=O)OCC(=O)NCc1ccco1 | inconclusive: 56.2 µM [inhibitor, partial curve] | – |
| Cc1occc1C(=O)N1CCN(c2ccc([N+](=O)[O-])cc2)CC1 | active: 39.8 µM | – |
| Cc1cccc(C(=O)NC(=S)N(C)C2CCCCC2)c1 | inconclusive: 89.1 µM [inhibitor, single point] | – |
| Cc1ccc(C2C(C#N)=C(N)Oc3cc4c(cc32)OCO4)cc1 (stereo not drawn) | – | inactive: 4.58% |
| O=C(Nc1cc2ccc(O)cc2oc1=O)c1ccccc1 | – | inactive: 2.89% |
| O=S(=O)(c1ccc(-c2csc(=Nc3ccc(OC(F)(F)Cl)cc3)n2CCCO)cc1)N1CCCC1 | inconclusive: 70.8 µM [inhibitor, single point] | – |
| NC(=O)[C@@H]1CCCNc2c(I)cc([N+](=O)[O-])cc2C(=O)N[C@@H](CCC(=O)O)C(=O)N[C@@H](CO)C(=O)N1 | – | inactive: 4.53% |
| CCCCn1c(NC(=O)c2ccco2)c(S(=O)(=O)c2ccc(C)cc2)c2nc3ccccc3nc21 | inconclusive: 70.8 µM [inhibitor, partial curve] | – |
| CCOC(=O)C(CC)n1cnc2c(nnn2-c2cccc(OC)c2)c1=O (stereo not drawn) | – | inactive: -1.75% |
| O=C(Nc1ccc(Oc2ccc(NC(=O)C3CCCO3)cc2)cc1)C1CCCO1 (stereo not drawn) | inconclusive: 0.112 µM [inhibitor, full curve, poor fit] | – |
| Nc1c(C(=O)N/N=C/c2cccnc2)oc2nc(-c3ccco3)cc(-c3ccco3)c12 | inconclusive: 39.8 µM [inhibitor, single point] | – |
| CCOc1ccc2nc(COC(=O)c3cccc([N+](=O)[O-])c3)c(C(C)=O)[n+]([O-])c2c1 | – | inconclusive: -36.5% [inhibitor] |
| Cc1nc(/C(N)=N/OC(=O)Cc2ccccc2)no1 | inconclusive: 0.126 µM [inhibitor, full curve, poor fit] | – |

At a glance, some entries already given:

| Structure (SMILES) | Potency | activity change, negative = inhibition |
| --- | --- | --- |
| COC(=O)CC1=NN(c2ccccc2)C(=O)/C1=C\c1ccc(OC)cc1 | – | inactive: 88.9% |
| CC(=O)Nc1nc(=S)ss1 | – | inactive: 18.6% |

The list continues:

| Structure (SMILES) | Potency | activity change, negative = inhibition |
| --- | --- | --- |
| O=C(Nc1ccc(-c2cscn2)cc1)C1CCCN(Cc2ccc(CO)o2)C1 (stereo not drawn) | inconclusive: 28.2 µM [inhibitor, single point] | – |
| C=CCN(C(=O)c1cccc(S(=O)(=O)N2CCN(C)CC2)c1)c1nc(-c2ccccc2)cs1 | inconclusive: 22.4 µM [inhibitor, full curve] | – |
| CC(=O)c1cccc(NC(=O)Cn2c(=O)oc3cc(S(=O)(=O)N4CCCC4)ccc32)c1 | active: 31.6 µM | – |
| CCn1c2ccccc2c2cc(/C=N/NC(=O)c3cc(O)cc(O)c3)ccc21 | inconclusive: 17.8 µM [inhibitor, full curve] | – |
| COC(=O)c1cc(OC)c(OC)c(OC)c1N | inconclusive: 89.1 µM [inhibitor, single point] | – |
| O=C(CCCn1c(=S)[nH]c2ccccc2c1=O)N1CCN(c2cccc(Cl)c2)CC1 | inconclusive: 3.55 µM [inhibitor, full curve] | – |
| O=C(CSc1cn[nH]n1)Nc1ccc(Cl)cc1Cl | inconclusive: 89.1 µM [inhibitor, single point] | – |
| Cc1ccc(NS(=O)(=O)c2cc(NC(=O)c3cc4c(s3)CCCC4)ccc2C)c(C)c1 | inconclusive: 39.8 µM [inhibitor, single point] | – |
| Cc1cc(N)n(-c2nc(-c3cccnc3)nc3ccccc23)n1 | inconclusive: 44.7 µM [inhibitor, partial curve, poor fit] | – |
| CC(C)CCn1nnc2sc(-c3ccccc3)cc2c1=O | – | inactive: 5.72% |
| CNC(=O)C(=O)Nc1nc(C23CC4CC(CC(C4)C2)C3)cs1 | inconclusive: 2.82 µM [inhibitor, full curve] | – |
| O=C(C1CCC1)N1CCc2cc(S(=O)(=O)NCc3ccccn3)ccc21 | inconclusive: 0.794 µM [inhibitor, full curve, poor fit] | – |
| COc1cc(/C=C2\SC(=S)N(NC(=O)c3cccnc3)C2=O)ccc1O | – | inconclusive: -64.6% [inhibitor] |
| COc1cccc(C(c2c(C)[nH]n(-c3ccccc3)c2=O)c2c(C)[nH]n(-c3ccccc3)c2=O)c1O | – | inactive: 26.3% |
| Cc1ccccc1-n1c(=O)cc(N2CCCCCC2)[nH]c1=O | inconclusive: 89.1 µM [inhibitor, single point] | – |
| O=C1C2=C(C(=O)c3ccccc31)C1O[C@](CCCCN3C(=O)c4ccccc4C3=O)(Cc3c1ccc1ccccc31)O2 | inconclusive: 0.501 µM [inhibitor, full curve] | – |
| COc1ccc(/C=N/NC(=O)CC(=O)N/N=C/c2ccc(OC)cc2)cc1 | inconclusive: 12.6 µM [inhibitor, partial curve, poor fit] | – |
| CSc1ccc(CCNC(=O)C(C)n2nc(C)c3sc4ccccc4c3c2=O)cc1 (stereo not drawn) | – | inactive: 13.5% |
| Cc1cccc(OCC(=O)N/N=C/C=C/c2ccco2)c1 | active: 35.5 µM | – |
| COc1ccc(CCNC(=O)c2cc3c(=O)n4ccccc4nc3n(C3CCCCC3)c2=N)cc1OC | active: 25.1 µM | – |
| COc1cc(OC)c(NC(=O)c2nn(-c3ccc(C)cc3)c(=O)c3c2c2ccccc2n3C)cc1Cl | – | inactive: 37.1% |

— PubChem BioAssay AID485314 (National Center for Advancing Translational Sciences (NCATS), 2010)
